In article PMC8044225:
These are yes or no findings as the source states them, for the method shown. In cells and extracts the contact can be indirect.

Amino acid sequences for entries named in this document (tags omitted).
UniProt O43707: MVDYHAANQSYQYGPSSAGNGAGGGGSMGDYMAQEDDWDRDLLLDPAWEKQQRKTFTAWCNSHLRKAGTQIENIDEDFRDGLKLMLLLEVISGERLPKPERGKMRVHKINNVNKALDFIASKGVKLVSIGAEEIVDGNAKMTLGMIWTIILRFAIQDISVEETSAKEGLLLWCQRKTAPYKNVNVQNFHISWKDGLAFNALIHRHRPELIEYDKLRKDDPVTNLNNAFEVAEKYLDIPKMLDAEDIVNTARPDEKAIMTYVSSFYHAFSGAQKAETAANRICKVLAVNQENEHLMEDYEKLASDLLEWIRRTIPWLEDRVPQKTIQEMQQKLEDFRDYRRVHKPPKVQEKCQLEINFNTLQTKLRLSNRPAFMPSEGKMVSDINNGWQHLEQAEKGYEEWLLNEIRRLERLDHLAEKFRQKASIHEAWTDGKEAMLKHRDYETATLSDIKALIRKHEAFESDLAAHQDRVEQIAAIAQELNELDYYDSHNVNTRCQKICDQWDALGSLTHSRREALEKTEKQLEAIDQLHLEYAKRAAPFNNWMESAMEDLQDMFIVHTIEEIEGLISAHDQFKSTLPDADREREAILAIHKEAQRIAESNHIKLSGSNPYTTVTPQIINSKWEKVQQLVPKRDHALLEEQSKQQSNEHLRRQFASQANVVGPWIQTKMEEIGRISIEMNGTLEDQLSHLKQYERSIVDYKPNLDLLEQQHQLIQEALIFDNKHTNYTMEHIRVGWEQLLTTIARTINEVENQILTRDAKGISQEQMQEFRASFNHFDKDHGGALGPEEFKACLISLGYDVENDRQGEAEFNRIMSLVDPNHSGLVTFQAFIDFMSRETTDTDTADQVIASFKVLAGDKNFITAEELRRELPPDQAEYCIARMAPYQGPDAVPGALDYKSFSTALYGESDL

Target: T1, EpCAM (Epithelial Cell Adhesion Molecule) (human) (UniProt P16422)
T1 sequence: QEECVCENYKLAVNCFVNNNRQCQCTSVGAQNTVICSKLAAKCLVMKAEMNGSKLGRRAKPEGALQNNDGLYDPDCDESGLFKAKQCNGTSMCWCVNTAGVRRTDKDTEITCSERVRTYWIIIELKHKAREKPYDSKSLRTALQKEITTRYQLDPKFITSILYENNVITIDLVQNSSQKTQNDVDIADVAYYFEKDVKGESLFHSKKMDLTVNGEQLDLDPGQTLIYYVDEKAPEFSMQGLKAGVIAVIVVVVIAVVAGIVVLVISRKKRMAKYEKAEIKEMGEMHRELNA
Assay: co-IP; cell lysate (50 mM Tris/HCl pH 8.0, 150 mM NaCl, 1 mM DTT, 0.5% NP-40, 1% Triton X-100, 1 mM EGTA, 1 mM EDTA); precleared, antibodies overnight at 4 °C, protein A-Sepharose beads 2 h, three washes with lysis buffer, immunoblot; which protein was precipitated is not told

α4-actinin (from UniProt O43707 1-911)
binding: no binding
